# Test results from patent US20060218667A1 (published 2006).
# Amino acid sequences for entries named in this document (tags omitted). Residues count along the entry.
# UniProt P00761, 9-231 limits assumed: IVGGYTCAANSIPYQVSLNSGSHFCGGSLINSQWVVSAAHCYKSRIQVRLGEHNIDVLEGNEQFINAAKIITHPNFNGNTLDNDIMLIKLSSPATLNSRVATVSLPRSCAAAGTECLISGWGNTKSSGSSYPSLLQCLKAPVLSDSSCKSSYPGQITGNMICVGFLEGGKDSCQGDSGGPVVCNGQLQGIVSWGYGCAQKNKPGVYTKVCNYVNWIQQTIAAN
# B1: r-Aprotinin-M (aprotinin variant with Met 52 deleted) (other)
# chain: MGKMASLFATFLVVLVSLSLASESSARPDFCLEPPYTGPCKARIIRYFYNAAGLCQT
# B2: Trasylol aprotinin (bovine lung-derived aprotinin, Bayer) (other)
# chain: MGKMASLFATFLVVLVSLSLASESSARPDFCLEPPYTGPCKARIIRYFYNAKAGLCQT
# modifications: Met 52 partly oxidized (5.7% by RP-HPLC); also minor C-terminally truncated (-Ala, -Gly-Ala) and derivatized species
# B3: plant-produced recombinant bovine aprotinin (r-Aprotinin), product of pLSB2602 (other)
# chain: B2 chain
# modifications: Met 52 partly oxidized (12.4% oxidized r-Aprotinin by RP-HPLC in lot 040413LYF); disulfides Cys5-Cys55, Cys14-Cys38, Cys30-Cys51
# Biological target: porcine trypsin (porcine, UniProt P00761 9-231)
# Assay: cell-based or functional assay
row,KIU/mg Protein (specific activity),Binder
1,6850 KIU/mg protein,B1
2,7120 KIU/mg protein,B2
3,7200 KIU/mg protein,B3
